Measurements as given in PubChem BioAssay AID2685 (National Center for Advancing Translational Sciences (NCATS), 2010).
Some of the results follow. The main result of the screen is listed elsewhere. These columns were measured beside it and carry no call. Most of these compounds were active or inconclusive in the main read-out, so they are no random draw. Potencies come from curve fits of mixed quality, noted in brackets.

Assay: qHTS Assay for Lipid Storage Modulators in Drosophila S3 Cells;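 on cell number change: cells counted by Cell Tracker Red CMTPX staining in the red channel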
Conditions: BODIPY lipid droplet fluorescence, 18-24 h; for cell number change: measured here: cell count max response, cells fed with added oleic acid
In short: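 Drosophila S3 cells loaded with oleic acid (400 uM, as added) and compounds at several concentrations; lipid droplets imaged by 488-nm laser-scanning cytometry, 500–530 nm intensity and object ratio to cell channel. Percent activity normalized to 20 uM Triacsin C.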

[1] = measured here: cell number channel AC50, cells fed with added oleic acid
[2] = measured here: lipid fluorescence (Fed channel) AC50, cells fed with added oleic acid

Cc1cc(C)cc(OCC(=O)OCC(=O)N2CC(=O)Nc3ccccc32)c1
cell number change: -43.9%
AC50 [1]: 18.4 µM [falling, single point]

COc1cc2c(cc1OC)CN(c1ccc([N+](=O)[O-])cc1Cl)CC2
cell number change: 11.8%
AC50 [2]: 7.31 µM [rising, partial curve]

CCn1c(SCC(=O)Nc2ccccc2)nnc1-c1cccs1
cell number change: 0.454%
AC50 [2]: 0.92 µM [rising, full curve, poor fit]

O=C(NC1CCSC1=O)c1cccc(Cl)c1 (stereo not given)
cell number change: -36.2%
AC50 [1]: 32.6 µM [falling, single point]
AC50 [2]: 0.103 µM [falling, full curve, poor fit]

O=C(Cc1ccccc1)c1c[nH]c(C(=O)NCc2ccncc2)c1
cell number change: 22.8%

N#Cc1c2n(c3c(=O)[nH]cnc13)CCCC2
cell number change: 8.32%
AC50 [2]: 0.058 µM [rising, full curve, poor fit]

O=C(N/C(=C/c1ccc(Br)cc1)C(=O)N1CCCC1)c1ccccc1F
cell number change: 25.4%
AC50 [2]: 14.6 µM [rising, partial curve]

CCSc1nc2c(sc3ccccc32)c(=O)n1C(C)C
AC50 [1]: 6.51 µM [rising, partial curve, poor fit]
AC50 [2]: 6.51 µM [rising, partial curve]

O=S(=O)(NC1CC1)c1ccc(S(=O)(=O)N(Cc2ccccn2)C2CCCC2)cc1
AC50 [2]: 0.58 µM [rising, single point]

Cc1ccc(C(=O)N/N=C/c2c[nH]c3ccccc23)o1
cell number change: -9.46%

Cc1cc(C)nc(N2CCCC(C(=O)Nc3ccc4c(c3)OCO4)C2)n1 (stereo not given)
cell number change: 6.22%
AC50 [2]: 0.366 µM [rising, full curve]

Cc1ccc(NC(=O)C2CCCN2S(=O)(=O)c2ccc3c(c2)n(C)c(=O)c(=O)n3C)cc1 (stereo not given)
cell number change: -7.04%

O=C(CN1C(=O)NC2(CCc3ccccc32)C1=O)Nc1ccccc1C(F)(F)F (stereo not given)
cell number change: 2.05%
AC50 [2]: 0.0259 µM [rising, full curve, poor fit]

CCOc1ccccc1NC(=O)c1ccccc1-c1nc(-c2ccccc2)no1
cell number change: -34.9%
AC50 [1]: 20.6 µM [falling, partial curve, poor fit]
AC50 [2]: 2.06 µM [rising, full curve]

Cn1c(CC(=O)Nc2ccccc2)nnc1SCC(=O)Nc1ccc(N2CCOCC2)cc1
cell number change: 6.76%
AC50 [2]: 29.1 µM [rising, partial curve, poor fit]

Cc1cccc(C(CC(=O)O)NC(=O)C(F)(F)F)c1 (stereo not given)
cell number change: -1.7%
AC50 [1]: 0.00517 µM [falling, full curve, poor fit]

COc1ccc(CNC(=O)CCC(=O)Nc2nnc(C(F)(F)F)s2)cc1
cell number change: -34.1%
AC50 [1]: 8.91 µM [falling, partial curve]

CC(C)CCN(C(=O)c1cc(=O)[nH]c2ccccc12)c1c(N)n(Cc2ccccc2)c(=O)[nH]c1=O
cell number change: 26.5%
AC50 [2]: 0.366 µM [falling, partial curve]

CCNC(=S)N/N=C/c1ccc(C(=O)O)cc1
cell number change: 34%
AC50 [1]: 0.0103 µM [rising, full curve, poor fit]
AC50 [2]: 0.146 µM [rising, full curve]

CCCn1c(SCCc2ccccc2)nc2c1c(=O)[nH]c(=O)n2C
cell number change: -13%
AC50 [2]: 1.3 µM [rising, full curve, poor fit]

COc1cc2c(cc1OC)CN(C(=O)c1cccc(S(=O)(=O)N3CCc4ccccc43)c1)CC2
cell number change: -21.2%

COc1cc(/C=N/NC(N)=O)cc([N+](=O)[O-])c1O
cell number change: -13.8%
AC50 [2]: 0.92 µM [falling, partial curve]

C=CCn1c(SCc2nc3ccccc3c(=O)[nH]2)nnc1-c1cc2cc(Cl)ccc2o1
cell number change: 31.7%
AC50 [1]: 1.84 µM [rising, partial curve, poor fit]
AC50 [2]: 1.16 µM [rising, single point]

Cc1nc(NC(=O)c2ccco2)sc1-c1csc(Nc2ccc(Cl)cc2Cl)n1
cell number change: -62.8%
AC50 [1]: 10.3 µM [falling, partial curve]
AC50 [2]: 18.4 µM [falling, single point]

CCc1ccc(C(=O)NC(=S)Nc2ccc(N3CCOCC3)cc2)cc1
cell number change: -13.1%
AC50 [2]: 29.1 µM [falling, single point]

CC(C)(C)N(NC(=O)OCc1ccccc1)C(=O)c1ccccc1Cl
cell number change: -10.2%
AC50 [2]: 20.6 µM [falling, single point]

CC(=O)c1c(C)[nH]c(C(=O)OCC(=O)N2CCCC2=O)c1C
cell number change: 1.37%
AC50 [2]: 0.58 µM [rising, partial curve, poor fit]

O=C1NC[C@H](c2ccccc2)N(CCc2cccc3ccccc23)C1=O
cell number change: 7.69%
AC50 [2]: 10.3 µM [rising, partial curve, poor fit]

O=C(Nc1ccc(F)cc1)N1CCN(c2nc3ccccc3s2)CC1
AC50 [2]: 1.03 µM [falling, partial curve]

Cc1cc(C)n(C(C[N+](=O)[O-])c2ccc(Cl)cc2)n1 (stereo not given)
cell number change: -9.68%
AC50 [2]: 0.82 µM [falling, single point]

CC1=NN(c2cccc(C(=O)O)c2)C(=O)/C1=C\C=C/c1ccccc1
cell number change: -27.1%
AC50 [2]: 5.8 µM [falling, full curve]

CCCCCOC(=O)C1=C(C)NC(=O)NC1c1ccccc1OCC (stereo not given)
cell number change: -2.57%
AC50 [2]: 3.26 µM [rising, single point]

CC(=O)C(N=Nc1ccccc1)(Sc1nnc(-c2ccccc2)n1-c1ccccc1)C(=O)Nc1ccccc1 (stereo not given)
cell number change: 26.1%
AC50 [2]: 2.31 µM [rising, single point]

CCC(C(=O)Nc1ncccn1)(C(F)(F)F)C(F)(F)F
cell number change: -97.6%
AC50 [1]: 29.1 µM [falling, single point]

Cc1cc(NC(=O)CN(C)S(=O)(=O)c2ccc(-c3ccc(=O)[nH]n3)s2)ccc1Br
AC50 [2]: 6.51 µM [rising, single point]

O=C(Cc1ccc2c(c1)CCCC2)Nc1ccccc1Br
cell number change: -13.4%
AC50 [1]: 0.461 µM [falling, single point]
AC50 [2]: 3.66 µM [falling, single point]

CCn1cc(CCC(=O)NC2CCCC2)c2ccccc21
cell number change: 95.8%
AC50 [1]: 29.1 µM [rising, partial curve, poor fit]
AC50 [2]: 29.1 µM [rising, single point]

CCCC(=O)NC(C)c1nc2ccccc2[nH]1 (stereo not given)
AC50 [2]: 5.17 µM [falling, full curve]

O=C(Nc1ccccn1)NC12CC3CC(CC(C3)C1)C2
cell number change: -38.9%
AC50 [1]: 23.1 µM [falling, single point]
AC50 [2]: 6.51 µM [falling, partial curve, poor fit]

CC(=O)c1ccc(OC(=O)/C=C/c2ccccc2)cc1
cell number change: -5.59%
AC50 [2]: 0.731 µM [rising, single point]

Cc1cc([N+](=O)[O-])ccc1NC(=O)C(C)[n+]1ccccc1 (stereo not given)
cell number change: -10.1%
AC50 [2]: 0.58 µM [falling, single point]

Cc1cc(C(=O)COC(=O)c2n[nH]c(=O)c3ccccc23)c(C)n1C
cell number change: 7.03%

N/C(=N\OC(=O)c1cc(Cl)ccc1Cl)c1ccccn1
cell number change: 6.03%
AC50 [2]: 18.4 µM [rising, single point]

Cc1ccc(Nc2cc(=O)[nH]c(=O)[nH]2)cc1Cl
cell number change: -28.8%
AC50 [1]: 0.116 µM [falling, full curve, poor fit]

O=C(COC(=O)/C=C/c1ccc(Cl)cc1)NC(=O)NCc1ccccc1
cell number change: -50.7%
AC50 [1]: 20.6 µM [falling, partial curve]
AC50 [2]: 2.91 µM [falling, partial curve, poor fit]

CC(C)(C)c1cccc(/C=N/O)c1O
cell number change: -24.4%
AC50 [2]: 29.1 µM [falling, single point]

CCCCN(C(=O)C1CC(=O)N(c2ccc3c(c2)OCCO3)C1)c1c(N)n(CCCC)c(=O)[nH]c1=O (stereo not given)
cell number change: -25%
AC50 [1]: 0.651 µM [falling, full curve]

CCN(C(=O)CSc1nnc(-c2ccncc2)o1)c1ccccc1
cell number change: 13.6%

Cc1ccc(C(=O)OCC(=O)Nc2c(C)n(C)n(-c3ccccc3)c2=O)cc1[N+](=O)[O-]
cell number change: 7.57%
AC50 [1]: 7.31 µM [falling, single point]
AC50 [2]: 6.51 µM [falling, single point]

CCc1ccccc1NC(=O)CC(O)(C(=O)OC)C(F)(F)F (stereo not given)
cell number change: -7.57%
AC50 [2]: 10.3 µM [falling, partial curve]

CC(C)C(C)NC(=O)COc1ccc(OCc2ccccc2)cc1 (stereo not given)
cell number change: 16.8%
AC50 [2]: 0.82 µM [falling, full curve]

COC(=O)CSc1nc2cc3c(cc2cc1C)OCO3
cell number change: 10.6%
AC50 [2]: 2.59 µM [falling, partial curve]

CCOC1(c2ccccc2)CC1C(=O)N/N=C/c1cccc([N+](=O)[O-])c1 (stereo not given)
AC50 [1]: 0.206 µM [rising, full curve, poor fit]
AC50 [2]: 0.461 µM [rising, full curve]

CS(=O)(=O)N(CC(=O)NCCC1=CCCCC1)c1ccc2c(c1)OCO2
cell number change: -1.62%
AC50 [2]: 6.51 µM [falling, single point]

O=C(CCCN1C(=O)c2ccccc2C1=O)NCC1CCCO1 (stereo not given)
cell number change: -15.8%
AC50 [1]: 0.058 µM [falling, full curve, poor fit]
AC50 [2]: 0.0326 µM [falling, full curve, poor fit]

COc1ccc(NC(=O)C2CCCN(S(=O)(=O)c3cccc4nonc34)C2)c(OC)c1 (stereo not given)
cell number change: 29.4%
AC50 [2]: 1.84 µM [rising, partial curve]

Cc1cc(C)cc(NC(=O)[C@H](Cc2c[nH]c3ccccc23)NC(=O)[C@@H]2Cc3ccccc3CN2)c1
cell number change: -1.37%
AC50 [2]: 29.1 µM [falling, single point]
